# Results: patent publication US20200392471
# Chains of the proteins cited; added tags and fusions are not shown.
# UniProt P19821, whole entry: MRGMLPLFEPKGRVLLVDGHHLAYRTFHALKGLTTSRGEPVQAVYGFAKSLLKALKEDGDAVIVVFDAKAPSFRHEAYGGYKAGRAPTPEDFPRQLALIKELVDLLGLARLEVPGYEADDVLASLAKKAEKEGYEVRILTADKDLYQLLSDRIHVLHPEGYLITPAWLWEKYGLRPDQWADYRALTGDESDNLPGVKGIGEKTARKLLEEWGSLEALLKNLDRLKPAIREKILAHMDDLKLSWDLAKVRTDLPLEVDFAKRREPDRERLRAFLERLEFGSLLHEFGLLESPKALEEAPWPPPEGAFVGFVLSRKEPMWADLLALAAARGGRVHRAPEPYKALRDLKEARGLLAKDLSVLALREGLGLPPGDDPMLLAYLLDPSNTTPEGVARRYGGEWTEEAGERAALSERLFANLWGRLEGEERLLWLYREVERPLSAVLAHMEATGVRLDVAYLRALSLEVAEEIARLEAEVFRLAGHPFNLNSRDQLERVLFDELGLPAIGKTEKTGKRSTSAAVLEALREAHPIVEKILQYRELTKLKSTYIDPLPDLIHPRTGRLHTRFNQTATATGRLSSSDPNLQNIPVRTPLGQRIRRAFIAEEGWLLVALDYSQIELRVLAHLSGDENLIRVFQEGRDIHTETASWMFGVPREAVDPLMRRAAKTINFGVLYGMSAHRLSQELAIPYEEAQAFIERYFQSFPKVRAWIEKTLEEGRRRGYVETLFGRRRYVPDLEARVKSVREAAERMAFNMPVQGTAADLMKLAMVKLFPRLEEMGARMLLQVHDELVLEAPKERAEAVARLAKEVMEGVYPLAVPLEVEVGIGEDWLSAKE
# For some assays here: Negatives hold for the conditions tested. For some assays here: Where a protein sequence is shown, tags need not be part of it. Weaker means in comparison with the reference protein, sequence or condition of that experiment.
# Assays:
# Taq DNA polymerase = Taq DNA polymerase (UniProt P19821); assay: inhibition of the protein; details: purified recombinant protein, folded or branched DNA
# [1] = target: T1, Afu Uracil-DNA Glycosylase (UniProt O28007); assay: activity assay; details: purified recombinant protein, protein details: New England Biolabs M0279S
# T1 sequence (looked up, limits assumed): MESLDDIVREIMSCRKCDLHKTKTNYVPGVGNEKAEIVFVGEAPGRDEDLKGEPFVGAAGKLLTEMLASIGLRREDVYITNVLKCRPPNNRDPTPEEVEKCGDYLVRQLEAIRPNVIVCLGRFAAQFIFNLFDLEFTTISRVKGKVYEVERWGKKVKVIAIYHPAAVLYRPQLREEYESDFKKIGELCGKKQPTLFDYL
sequence,measurement,setting,value
TGCGCGATTTAAAGCGATTCTUAGCGTTTTCGCTTTAAATCGCGCAT [aptamer SEQ ID NO:9],functional effect of the aptamer,"Taq DNA polymerase; deoxyuridine at loop position 5, 80 nM aptamer blocks PCR, also with UDG present, protein details: GenScript E00007",active
AAATTATATTCTUAGCGTTTTATAATTTTAAAACGAAGTTTTA [circular aptamer SEQ ID NO:17],functional effect of the aptamer,"Taq DNA polymerase; deoxyuridine at loop position 5, 80 nM aptamer blocks PCR, protein details: GenScript E00007",active
TGCGCGATTTAAAGCGATUCTTAGCGTTTTCGCTTTAAATCGCGCAT [aptamer SEQ ID NO:7],activity on this sequence,"[1]; deoxyuridine at loop position 2, UDG reactivates aptamer-blocked Taq in PCR, folded or branched DNA",active
same,functional effect of the aptamer,"Taq DNA polymerase; deoxyuridine at loop position 2, 80 nM aptamer blocks PCR, 5 mM MgCl2, 50 mM KCl, pH 8.0, protein details: GenScript E00007",active
"TGCGCGATTTAAAGCGATTCTTAGCGTTTTCGCTTTAAATCGCGCAT [aptamer SEQ ID NO:5 (noncircular, unmodified)]",activity on this sequence,"[1]; no dU, no Taq reactivation in PCR, folded or branched DNA",not active
same,functional effect of the aptamer,"Taq DNA polymerase; 80 nM aptamer blocks PCR, 5 mM MgCl2, 50 mM KCl, 20 mM Tris pH 8.0, 60 C extension, protein details: GenScript E00007",active
AAATTATATTCUTAGCGTTTTATAATTTTAAAACGAAGTTTTA [circular aptamer SEQ ID NO:16],functional effect of the aptamer,"Taq DNA polymerase; deoxyuridine at loop position 4, 80 nM aptamer blocks PCR, protein details: GenScript E00007",active
TGCGCGATTTAAAGCGATTCTTAGCGUTTTCGCTTTAAATCGCGCAT [aptamer SEQ ID NO:10],activity on this sequence,"[1]; deoxyuridine at loop position 10, incomplete Taq reactivation, folded or branched …",less active
same,functional effect of the aptamer,"Taq DNA polymerase; deoxyuridine at loop position 10, 80 nM aptamer blocks PCR, only partly relieved by UDG, protein details: GenScript E00007",active
AAATTATATTCTTAGCGTTTTATAATTTTAAAACGAAGTTTTA [circular aptamer SEQ ID NO:13 (unmodified)],activity on this sequence,"[1]; no dU, pattern stated similar to noncircular SEQ 5, folded or branched DNA",not active
same,functional effect of the aptamer,"Taq DNA polymerase; 80 nM aptamer blocks PCR, 5 mM MgCl2, 50 mM KCl, pH 8.0, protein details: GenScript E00007",active
TGCGCGATTTAAAGCGATTCUTAGCGTTTTCGCTTTAAATCGCGCAT [aptamer SEQ ID NO:8],functional effect of the aptamer,"Taq DNA polymerase; deoxyuridine at loop position 4, 80 nM aptamer blocks PCR, also with UDG present, protein details: GenScript E00007",active
AAATTATATTCTTAGCGTUTTATAATTTTAAAACGAAGTTTTA [circular aptamer SEQ ID NO:19],activity on this sequence,"[1]; deoxyuridine at loop position 11, Taq reactivation, pattern stated similar to noncircular set, folded or branched DNA",active
same,functional effect of the aptamer,"Taq DNA polymerase; deoxyuridine at loop position 11, incomplete inactivation at 80 nM, least inhibitory of the set, protein details: GenScript …",less active
AAATTATATUCTTAGCGTTTTATAATTTTAAAACGAAGTTTTA [circular aptamer SEQ ID NO:15],activity on this sequence,"[1]; deoxyuridine at loop position 2, Taq reactivation, pattern stated similar to noncircular set, folded or branched DNA",active
same,functional effect of the aptamer,"Taq DNA polymerase; deoxyuridine at loop position 2, 80 nM aptamer blocks PCR, protein details: GenScript E00007",active
AAATTATATTCTTAGCGUTTTATAATTTTAAAACGAAGTTTTA [circular aptamer SEQ ID NO:18],activity on this sequence,"[1]; deoxyuridine at loop position 10, effective Taq reactivation, unlike noncircular SEQ 10, folded or branched DNA",active
same,functional effect of the aptamer,"Taq DNA polymerase; deoxyuridine at loop position 10, 80 nM aptamer blocks PCR, protein details: GenScript E00007",active
TGCGCGATTTAAAGCGAUTCTTAGCGTTTTCGCTTTAAATCGCGCAT [aptamer SEQ ID NO:6],activity on this sequence,"[1]; deoxyuridine at loop position 1, UDG reactivates aptamer-blocked Taq in PCR, folded or branched DNA",active
same,functional effect of the aptamer,"Taq DNA polymerase; deoxyuridine at loop position 1, 80 nM aptamer blocks PCR, 5 mM MgCl2, 50 mM KCl, pH 8.0, protein details: GenScript E00007",active
TGCGCGATTTAAAGCGATTCTTAGCGTUTTCGCTTTAAATCGCGCAT [aptamer SEQ ID NO:11],activity on this sequence,"[1]; deoxyuridine at loop position 11, UDG reactivates aptamer-blocked Taq in PCR, folded or branched DNA",active
same,functional effect of the aptamer,"Taq DNA polymerase; deoxyuridine at loop position 11, 80 nM aptamer blocks PCR, 5 mM MgCl2, 50 mM KCl, pH 8.0, protein details: GenScript E00007",active
AAATTATAUTCTTAGCGTTTTATAATTTTAAAACGAAGTTTTA [circular aptamer SEQ ID NO:14],activity on this sequence,"[1]; deoxyuridine at loop position 1, Taq reactivation, pattern stated similar to noncircular set, folded or branched DNA",active
same,functional effect of the aptamer,"Taq DNA polymerase; deoxyuridine at loop position 1, incomplete inactivation at 80 nM, protein details: GenScript E00007",less active
AAATTATATTCTTAGCGTTUTATAATTTTAAAACGAAGTTTTA [circular aptamer SEQ ID NO:20],activity on this sequence,"[1]; deoxyuridine at loop position 12, Taq reactivation, pattern stated similar to noncircular set, folded or branched DNA",active
same,functional effect of the aptamer,"Taq DNA polymerase; deoxyuridine at loop position 12, incomplete inactivation at 80 nM, protein details: GenScript E00007",less active
